For the test, the target named is Platelet-activating factor receptor (mouse (endogenous in RAW 264.7)) (UniProt Q62035). Kind of test: co-IP; RAW 264.7 lysates in RIPA buffer (100 ug protein); anti-PAFR antibody on Protein A/G magnetic beads, overnight at 4 °C; blot with anti-PAR2 and anti-PAFR; cells treated for 20 min with PBS, C-PAF (100 nM), SLIGRL-NH2 (50 uM) or both; normal rabbit IgG as control.

Sequences of proteins named here, by UniProt entry; tags and fusion partners are left off. A change or cut given only in a name is not applied to a line headed by its entry.
UniProt Q62035: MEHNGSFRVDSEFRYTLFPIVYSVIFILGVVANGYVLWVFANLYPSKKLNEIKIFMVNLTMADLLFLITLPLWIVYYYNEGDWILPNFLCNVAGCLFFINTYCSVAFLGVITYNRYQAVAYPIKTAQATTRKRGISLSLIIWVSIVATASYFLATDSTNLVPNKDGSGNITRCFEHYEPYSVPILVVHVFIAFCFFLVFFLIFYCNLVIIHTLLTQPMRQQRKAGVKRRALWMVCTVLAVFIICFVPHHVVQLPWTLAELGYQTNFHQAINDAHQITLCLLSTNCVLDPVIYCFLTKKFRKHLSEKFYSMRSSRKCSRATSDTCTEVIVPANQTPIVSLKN
UniProt P55086: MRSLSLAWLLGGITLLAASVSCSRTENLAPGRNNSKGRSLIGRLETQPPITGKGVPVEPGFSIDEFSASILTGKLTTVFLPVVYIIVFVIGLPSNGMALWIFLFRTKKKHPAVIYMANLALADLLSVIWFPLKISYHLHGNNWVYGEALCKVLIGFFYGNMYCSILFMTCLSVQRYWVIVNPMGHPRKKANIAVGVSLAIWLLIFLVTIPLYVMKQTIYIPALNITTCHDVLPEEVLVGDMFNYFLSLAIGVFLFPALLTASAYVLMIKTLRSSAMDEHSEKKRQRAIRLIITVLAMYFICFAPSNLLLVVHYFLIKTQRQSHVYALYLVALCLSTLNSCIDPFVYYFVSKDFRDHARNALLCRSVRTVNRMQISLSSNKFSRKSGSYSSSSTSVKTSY

These are yes or no findings as the source states them, for the method shown. In cells and extracts the contact can be indirect. Binding calls can cover weak binding; strength is not graded here.

Consider “Protease-activated receptor 2 (from UniProt P55086)”, for which the binding entry is “binds”.

The values are drawn from article PMC10703791.
